Values quoted from earlier work, collected in patent US20100172865A1, “METHODS OF ENHANCING HAIR GROWTH” (priority 2010, published 2010).
At least one compound was matched to its structure with a doubt left.

Key:
aromatase = conditions: cited from earlier work
hair loss = conditions: cited from earlier work

C[C@@H]1C[C@H]2[C@@H]3CCC4=CC(=O)C=C[C@]4(C)[C@@]3(F)[C@@H](O)C[C@]2(C)[C@@]1(O)C(=O)CO [Dexamethasone]
effect on aromatase (aromatase; in dermal papilla cell): induced aromatase | stimulation of aromatase (aromatase; in fibroblasts): 10-20 fold

Nc1cc(N2CCCCC2)nc(N)[n+]1[O-] [Minoxidil]
share in which loss of hair is slowed (hair loss; applied topically): 90% | share of users with mild to modest hair restoration effect (hair loss; topical application, early balding): less than 50%
